In the supplement of paper PMC8732350:
Where “and” joins values, the source holds several entries; their conditions need not be identical. Equal entries are not always repeated. Structures can show the parent of a compound that is named as a salt. ± gives the standard deviation of the averaged measurements. This is one part of the list. Repeats in this data set agree poorly, so a single value says little.

These molecules were tested on A549 (assay: surface PD-L1 immunofluorescence intensity relative to IFN-gamma-only control (ratio); higher = more PD-L1 expression). Conditions: 10 µM; exposure time 24 h; IFN-gamma 100 ng/mL.

| SMILES | surface PD-L1 immunofluorescence intensity |
| --- | --- |
| COc1ccc2[nH]c(I)c(CCNC(C)=O)c2c1 [2-Iodomelatonin] | 1.09 |
| CCOC(=O)C(C)(C)Oc1ccc(Cl)cc1 [Clofibrate] | 1.12 |
| O=c1cc(N2CCOCC2)oc2c1ccc1ccccc12 | 1.03 |
| CC(C)NC[C@H](O)COc1ccc(CC(N)=O)cc1 [S-(-)-Atenolol] | 0.99 |
| CC(C)NC[C@H](O)COc1ccc(CC(N)=O)cc1 [(S)-(-)-Atenolol] | 0.95 |
| C[C@@H]1NC(=O)NC1=O [Methylhydantoin-5-(L)] | 1.08 |
| CC[C@H](C)[C@H](N)C1=N[C@H](C(=O)N[C@@H](CC(C)C)C(=O)N[C@H](CCC(=O)[O-])C(=O)N[C@H](C(=O)N[C@H]2CCCCNC(=O)[C@H](CC(N)=O)NC(=O)[C@@H](CC(=O)[O-])NC(=O)[C@H](Cc3cnc[nH]3)NC(=O)[C@@H](Cc3ccccc3)NC(=O)[C@H]([C@@H](C)CC)NC(=O)[C@@H](CCCN)NC2=O)[C@@H](C)CC)CS1.[Zn+2] [Bacitracin zinc] | 1.06 |
| O=C(O)c1ccccc1Nc1ccccc1 [N-phenylanthranilic acid] | 0.94 |
| CCCCCCCCCCCCCCCC(=O)NCCO [Palmitoylethanolamide] | 0.904 |
| CN1CCN(C2=Nc3cc(Cl)ccc3Nc3ccccc32)CC1 [Clozapine] | 0.987 ± 0.14 |
| Clc1ccc(COC(Cn2ccnc2)c2ccc(Cl)cc2Cl)c(Cl)c1 (stereo not drawn) [Miconazole] | 0.912 |
| CC(C)[C@@H](O)CC[C@@H](C)[C@H]1CC[C@H]2[C@@H]3CC=C4C[C@@H](O)CC[C@]4(C)[C@H]3CC[C@]12C [24(S)-Hydroxycholesterol] | 1.09 |
| NC12CC3CC(CC(C3)C1)C2 [Adamantamine fumarate] | 0.982 |
| Cc1[nH]c2ccccc2c1C(Nc1ccccn1)c1ccc(Cl)cc1 (stereo not drawn) | 1.11 |
| CO[C@H]1O[C@@H]2O[C@@]3(C)CC[C@H]4[C@H](C)CC[C@@H]([C@H]1C)[C@@]24OO3 [Artemether (SM-224)] | 1.04 |
| O=c1c2ccccc2oc2ccccc12 [Xanthone (Genicide)] | 1.16 |
| CC1(C2CCCC2)Cc2cc(OCC(=O)O)c(Cl)c(Cl)c2C1=O (stereo not drawn) | 1.03 |
| Cc1ccc(-c2ncc(Cl)cc2-c2ccc(S(C)(=O)=O)cc2)cn1 [Etoricoxib] | 0.959 |
| CC1(C)C(=O)NC2=C1C(=O)C(=O)c1ccccc12 | 1.11 |
| CCCc1c(OCCCCc2nnn[nH]2)ccc(C(C)=O)c1O | 1.06 |
| CC1CCc2c(N3CCC(O)CC3)c(F)cc3c(=O)c(C(=O)O)cn1c23 (stereo not drawn) [Nadifloxacin] | 0.975 |
| Clc1ccc(CCCOCCCN2CCCCC2)cc1 | 0.929 |
| Nc1nc(=O)c2c([nH]1)NC[C@H](CNc1ccc(C(=O)N[C@@H](CCC(=O)O)C(=O)O)cc1)N2C=O [Calcium levofolinate (Calcium Folinate)] | 1.05 |
| COc1cc(N)c(Cl)cc1C(=O)CCC1CCN(CCNS(C)(=O)=O)CC1 | 0.95 |
| NCCc1cc[nH]n1 [Betazole hydrochloride] | 0.839 |
| CCCNC(C)C(=O)Nc1c(C)csc1C(=O)OC (stereo not drawn) [Articaine hydrochloride] | 1.02 |

Another view of some results above.
SMILES | surface PD-L1 immunofluorescence intensity
CC(C)NC[C@H](O)COc1ccc(CC(N)=O)cc1 [S-(-)-Atenolol] | 0.99
CC(C)NC[C@H](O)COc1ccc(CC(N)=O)cc1 [(S)-(-)-Atenolol] | 0.95
C[C@@H]1NC(=O)NC1=O [Methylhydantoin-5-(L)] | 1.08
CC[C@H](C)[C@H](N)C1=N[C@H](C(=O)N[C@@H](CC(C)C)C(=O)N[C@H](CCC(=O)[O-])C(=O)N[C@H](C(=O)N[C@H]2CCCCNC(=O)[C@H](CC(N)=O)NC(=O)[C@@H](CC(=O)[O-])NC(=O)[C@H](Cc3cnc[nH]3)NC(=O)[C@@H](Cc3ccccc3)NC(=O)[C@H]([C@@H](C)CC)NC(=O)[C@@H](CCCN)NC2=O)[C@@H](C)CC)CS1.[Zn+2] [Bacitracin zinc] | 1.06
O=C(O)c1ccccc1Nc1ccccc1 [N-phenylanthranilic acid] | 0.94
CCCCCCCCCCCCCCCC(=O)NCCO [Palmitoylethanolamide] | 0.904
CN1CCN(C2=Nc3cc(Cl)ccc3Nc3ccccc32)CC1 [Clozapine] | 0.987 ± 0.14
Clc1ccc(COC(Cn2ccnc2)c2ccc(Cl)cc2Cl)c(Cl)c1 (stereo not drawn) [Miconazole] | 0.912
CC(C)[C@@H](O)CC[C@@H](C)[C@H]1CC[C@H]2[C@@H]3CC=C4C[C@@H](O)CC[C@]4(C)[C@H]3CC[C@]12C [24(S)-Hydroxycholesterol] | 1.09
NC12CC3CC(CC(C3)C1)C2 [Adamantamine fumarate] | 0.982
Cc1[nH]c2ccccc2c1C(Nc1ccccn1)c1ccc(Cl)cc1 (stereo not drawn) | 1.11
CO[C@H]1O[C@@H]2O[C@@]3(C)CC[C@H]4[C@H](C)CC[C@@H]([C@H]1C)[C@@]24OO3 [Artemether (SM-224)] | 1.04
O=c1c2ccccc2oc2ccccc12 [Xanthone (Genicide)] | 1.16
CC1(C2CCCC2)Cc2cc(OCC(=O)O)c(Cl)c(Cl)c2C1=O (stereo not drawn) | 1.03
Cc1ccc(-c2ncc(Cl)cc2-c2ccc(S(C)(=O)=O)cc2)cn1 [Etoricoxib] | 0.959
CC1(C)C(=O)NC2=C1C(=O)C(=O)c1ccccc12 | 1.11
CCCc1c(OCCCCc2nnn[nH]2)ccc(C(C)=O)c1O | 1.06

Continued.

| SMILES | surface PD-L1 immunofluorescence intensity |
| --- | --- |
| COc1cccc(N(C)C(=S)Oc2ccc3c(c2)CCCC3)n1 [Liranaftate] | 1.07 |
| CC(=O)C1=C(O)C=C2Oc3c(C(C)=O)c(O)c(C)c(O)c3C2(C)C1=O (single isomer, unassigned; (+)) [(+)-Usniacin (D-Usnic acid)] | 1.03 |
| Cc1cnc(-c2cnc(NCCNc3ccc(C#N)cn3)nc2-c2ccc(Cl)cc2Cl)[nH]1 | 1.23 and 1.21 |
| Cc1c(NC(C)C)c(=O)n(-c2ccccc2)n1C [Isopyrin hydrochloride] | 1.03 |
| COc1ccc2c(c1)C(=O)N(CCc1ccc(S(=O)(=O)NC(=O)NC3CCCCC3)cc1)C(=O)C2(C)C [Gliquidone] | 0.986 |
| C=CCc1ccc(O)c(-c2cc(CC=C)ccc2O)c1 [Magnolol] | 1.08 |
| CC(=N)NCc1cccc(CN)c1 [1400W dihydrochloride] | 0.967 |
| NS(=O)(=O)Cc1noc2ccccc12 [Zonisamide] | 0.946 ± 0.085 |
| CC(C)c1cccc(=O)c(O)c1 [Hinokitiol] | 0.881 |
| CN(C)CCN(Cc1ccc(Cl)cc1)c1ccccn1 [Chloropyramine hydrochloride] | 1.01 |
| C[C@H](NC[C@H](O)CP(=O)(O)Cc1ccccc1)c1ccc(Cl)c(Cl)c1 | 1.04 |
| O=C1NC(=O)c2cc(Nc3ccc(F)cc3)c(Nc3ccc(F)cc3)cc21 | 0.992 |
| Cc1cn([C@H]2C[C@H](N=[N+]=[N-])[C@@H](CO)O2)c(=O)[nH]c1=O [Zidovudine, AZT] | 1.2 |
| COc1ccc([C@@H]2Sc3ccccc3N(CCN(C)C)C(=O)[C@@H]2OC(C)=O)cc1 [Diltiazem hydrochloride] | 1 ± 0.1 |
| Cc1c(NC(=O)OC[C@@H]2COCCN2)cn2ncnc(Nc3ccc4c(cnn4Cc4cccc(F)c4)c3)c12 | 0.915 |
| NCCC(O)(P(=O)(O)O)P(=O)(O)O [Pamidronate Disodium] | 1.01 |
| CC(C[N+](C)(C)C)OC(N)=O (stereo not drawn) [Bethanechol chloride] | 1.08 |
| CC(C)C[C@H](NC(=O)N[C@H](C(=O)N[C@@H](CCC(N)=O)C(=O)N[C@@H](C)C=O)[C@@H]1CCNC(=N)N1)C(=O)O [Elastatinal] | 0.88 |
| NC(=O)c1ccc[n+]([C@@H]2O[C@H](COP(=O)([O-])OP(=O)(O)OC[C@H]3O[C@@H](n4cnc5c(N)ncnc54)[C@H](O)[C@@H]3O)[C@@H](O)[C@H]2O)c1 [Nadide] | 1.07 |
| CC(C)[C@H](NS(=O)(=O)c1ccc(-c2ccc(Br)cc2)cc1)C(=O)O | 1.04 |
| NCC(=O)CCC(=O)O [5-Aminolevulinic acid HCl] | 1.09 |
| O=C(Nc1ccccc1)N[C@@H]1C[C@@H](C(=O)O)Nc2cc(Cl)cc(Cl)c21 | 1.1 |
| O=C(O)C[C@H](O)C[C@H](O)/C=C/c1c(C2CC2)nc2ccccc2c1-c1ccc(F)cc1 [Pitavastatin calcium (Livalo)] | 1.17 |
| O=c1[nH]c2cc(Cl)ccc2c(O)c1-c1cccc(Oc2ccccc2)c1 | 0.97 |
| Cc1ccc(C)c(OCCCC(C)(C)C(=O)O)c1 [Gemfibrozil] | 1.03 ± 0.014 |
| COc1cc2c(cc1OC)[C@@H]1Cc3ccc(OC)c(OC)c3CN1CC2 [Rotundine] | 0.797 |

| SMILES | surface PD-L1 immunofluorescence intensity |
| --- | --- |
| O=C(CCCN1CCC(O)(c2ccc(Cl)cc2)CC1)c1ccc(F)cc1 [Haloperidol] | 0.971 |
| O=C(CCCN1CCC(O)(c2ccc(Cl)cc2)CC1)c1ccc(F)cc1 [Haloperidol hydrochloride] | 1.07 |
| C[C@]12CCC(=O)C=C1C=C[C@@H]1[C@@H]2CC[C@@]2(C)[C@H]1CC[C@@]21CCC(=O)O1 [Canrenone] | 0.917 |
| CC1(C)[C@@H](O)CC[C@]2(C)[C@H]3C(=O)C=C4[C@@H]5C[C@@](C)(C(=O)O)CC[C@]5(C)CC[C@@]4(C)[C@]3(C)CC[C@@H]12 [Enoxolone (Glycyrrhetin)] | 1.04 |
| C[C@H]1COC2(CCN(c3nc(=O)c4cc(C(F)(F)F)cc([N+](=O)[O-])c4s3)CC2)O1 (racemic) [BTZ043 racemate] | 1.03 |
| CC1(C)S[C@@H]2[C@H](NC(=O)[C@H](N)c3ccccc3)C(=O)N2[C@H]1C(=O)OC1OC(=O)c2ccccc21 (stereo partly drawn) [Talampicillin hydrochloride] | 1.05 |
| O=C(O)c1ccc(-n2nc(-c3ccccc3O)nc2-c2ccccc2O)cc1 [Deferasirox (Exjade)] | 0.995 |
| COC(=O)CCc1ccc(OCC(O)CNC(C)C)cc1 (stereo not drawn) [Esmolol hydrochloride] | 1.04 |
| COCCOC(=O)C1=C(C)NC(C)=C(C(=O)OC(C)C)C1c1cccc([N+](=O)[O-])c1 (stereo not drawn) [Nimodipine] | 1.03 ± 0.1 |
| CN1C(C(=O)Nc2ccccn2)=C(O)c2ccccc2S1(=O)=O [Piroxicam] | 0.96 ± 0.066 |
| COc1ccc2c3c1O[C@H]1C[C@@H](O)C=C[C@@]31CCN(C)C2 [Galanthamine hydrobromide] | 1.05 ± 0.048 |
| Cc1cc(F)c(Nc2ncnc3cc(OCc4ccccc4)ccc23)cc1O | 1.08 and 1.04 |
| Cc1nnc(SCC2=C(C(=O)O)N3C(=O)[C@@H](NC(=O)Cn4cnnn4)[C@H]3SC2)s1 [Cefazolin sodium salt] | 0.984 |
| CCCCc1nc2ccn(Cc3cccs3)c(=O)c2n1Cc1ccc(-c2ccccc2-c2nn[nH]n2)cc1 | 0.875 |
| c1cc(CN2CCCNCCNCCCNCC2)ccc1CN1CCCNCCNCCCNCC1 [Plerixafor 8HCl (AMD3100 8HCl)] | 1.04 |
| CC(C)NC(=N)NC(=N)Nc1ccc(Cl)cc1 [Proguanil hydrochloride] | 0.991 |
| CC(C)n1cnc2c(NCCc3ccc(O)cc3)nc(-c3csc4ccccc34)nc21 [StemRegenin 1] | 1.01 |
| Cc1nc2c(O)cccc2c(=O)[nH]1 | 0.954 |
| C=C[C@@](C)(/C=C/c1ccc(O)cc1)CCC=C(C)C [Bakuchiol] | 0.892 |
| CCCOc1ccc(Br)cc1-c1cc(-c2ccc(Cl)cc2)[nH]c1-c1ccncc1 | 0.934 |
| CN(Cc1ccc(C(C)(C)C)cc1)Cc1cccc2ccccc12 [Butenafine Hydrochloride] | 1.15 |
| N=C(CC(O)COc1ccccc1-c1ccccc1)N1CCCCC1 (stereo not drawn) | 1.1 |
| CCCCCCCCNC(C)C(O)c1ccc(SC(C)C)cc1 (stereo not drawn) [Suloctidil] | 1.01 |
| CC(=O)CC(c1ccc([N+](=O)[O-])cc1)c1c(O)c2ccccc2oc1=O (stereo not drawn) [Acenocoumarol] | 0.921 |
| S=c1[nH]cnc2nc[nH]c12 [Mercaptopurine] | 1.01 ± 0.065 |
| NS(=O)(=O)c1ccc(NC(=O)Nc2ccc(F)cc2)cc1 | 0.936 |
